Data as given in PMC12435268.

Target: NF-κB
Experiment: co-IP; cells lysed; supernatants incubated overnight at 4 °C with specific antibodies; Protein A/G magnetic beads 1 h at room temperature; three washes; Western blot

B1: ANXA6 (protein, UniProt P08133 1-673)
chain: MAKPAQGAKYRGSIHDFPGFDPNQDAEALYTAMKGFGSDKEAILDIITSRSNRQRQEVCQSYKSLYGKDLIADLKYELTGKFERLIVGLMRPPAYCDAKEIKDAISGIGTDEKCLIEILASRTNEQMHQLVAAYKDAYERDLEADIIGDTSGHFQKMLVVLLQGTREEDDVVSEDLVQQDVQDLYEAGELKWGTDEAQFIYILGNRSKQHLRLVFDEYLKTTGKPIEASIRGELSGDFEKLMLAVVKCIRSTPEYFAERLFKAMKGLGTRDNTLIRIMVSRSELDMLDIREIFRTKYEKSLYSMIKNDTSGEYKKTLLKLSGGDDDAAGQFFPEAAQVAYQMWELSAVARVELKGTVRPANDFNPDADAKALRKAMKGLGTDEDTIIDIITHRSNVQRQQIRQTFKSHFGRDLMTDLKSEISGDLARLILGLMMPPAHYDAKQLKKAMEGAGTDEKALIEILATRTNAEIRAINEAYKEDYHKSLEDALSSDTSGHFRRILISLATGHREEGGENLDQAREDAQVAAEILEIADTPSGDKTSLETRFMTILCTRSYPHLRRVFQEFIKMTNYDVEHTIKKEMSGDVRDAFVAIVQSVKNKPLFFADKLYKSMKGAGTDEKTLTRIMVSRSEIDLLNIRREFIEKYDKSLHQAIEGDTSGDFLKALLALCGGED
- binding: binds

These are yes or no findings as the source states them, for the method shown. In cells and extracts the contact can be indirect. Binding calls can cover weak binding; strength is not graded here.
